# Assay results from the supplement of paper PMC11348887.
# Counter-ions that a name gives are not always drawn. ± gives the standard deviation of the averaged measurements. This is one part of the list. Small differences around the control level are noise. Where a SMILES comes first, the peptide text is derived from it. [ ]: non-standard residue; d: D form.
# System: hPSC-derived cortical neurons (WA09)
# Assay: nucleus roundness z-score vs screen plate; higher = rounder nuclei (more mature)
# Conditions: 5 µM; treatment: days 7-14 after plating, readout day 21
row,SMILES,nucleus roundness z-score
1,CC(=O)O[C@H]1C(=O)[C@@]2(C)[C@H]([C@H](OC(=O)c3ccccc3)[C@]3(O)C[C@H](OC(=O)[C@H](O)[C@@H](NC(=O)c4ccccc4)c4ccccc4)C(C)=C1C3(C)C)[C@]1(OC(C)=O)CO[C@@H]1C[C@@H]2O [Paclitaxel],-1.23
2,CCCNC(=O)c1cn2ncnc(Nc3cc(C(=O)NC4CC4)ccc3C)c2c1C,-0.288
3,Cn1ncc(Cl)c1-c1cc(C(=O)N[C@H](CN)Cc2cccc(F)c2)sc1Cl,-2.08
4,O=S(=O)(N=Cc1c(O)ccc2ccccc12)c1cccs1,0.0521
5,CC(=O)O[C@]1(C(C)=O)CC[C@H]2[C@@H]3C[C@H](C)C4=CC(=O)CC[C@]4(C)[C@H]3CC[C@@]21C [Medroxyprogesterone acetate],-0.575
6,CN1CC(=O)NC1=N [Creatinine],0.587
7,O=S(=O)(O)c1cc(O)ccc1O [Ethamsylate],-0.406
8,Nc1cccc2c1C(=O)N(C1CCC(=O)NC1=O)C2=O (stereo unspecified) [Pomalidomide],-0.829
9,CCCCCCCCCCCCCCCCCCOP(=O)([O-])OC1CC[N+](C)(C)CC1 [Perifosine (KRX-0401)],1.22
10,CC(C)C[C@@H]1NC(=O)[C@@H](C(C)C)NC(=O)[C@@H]2CCCN2C(=O)[C@@H](CC(=O)O)NC(=O)[C@@H](Cc2c[nH]c3ccccc23)NC1=O (cyclo(L[dW][dD]P[dV])),0.386
11,Fc1ccc(Cl)cc1-c1nc(Nc2ccncc2)c2nccnc2n1,-3.49
12,CCC[C@H](N[C@H]1CCc2cc(F)cc(F)c2C1)C(=O)Nc1cn(C(C)(C)CNCC(C)(C)C)cn1,-0.519
13,Cc1nc(NC(=O)N2CCC[C@H]2C(N)=O)sc1-c1ccnc(C(C)(C)C(F)(F)F)c1,-0.103
14,C[N+]1(C)[C@@H]2C[C@@H](OC(=O)C(O)(c3cccs3)c3cccs3)C[C@H]1[C@@H]1O[C@@H]12 [Tiotropium Bromide hydrate],-0.133
15,O=C(O)/C=C/c1ccc(Cn2ccnc2)cc1 [Ozagrel],-0.361
16,COc1ccccc1OCC(O)COC(N)=O (stereo unspecified) [Methocarbamol],0.0647

# Entries from the list above with fluorine (four):
row,SMILES,nucleus roundness z-score
3,Cn1ncc(Cl)c1-c1cc(C(=O)N[C@H](CN)Cc2cccc(F)c2)sc1Cl,-2.08
11,Fc1ccc(Cl)cc1-c1nc(Nc2ccncc2)c2nccnc2n1,-3.49
12,CCC[C@H](N[C@H]1CCc2cc(F)cc(F)c2C1)C(=O)Nc1cn(C(C)(C)CNCC(C)(C)C)cn1,-0.519
13,Cc1nc(NC(=O)N2CCC[C@H]2C(N)=O)sc1-c1ccnc(C(C)(C)C(F)(F)F)c1,-0.103

# (continued)

row,SMILES,nucleus roundness z-score
1,CN1CCC[C@@H]1Cc1c[nH]c2ccc(CCS(=O)(=O)c3ccccc3)cc12 [Eletriptan HBr],-0.219
2,CC[C@H]1OC(=O)[C@H](C)[C@@H](O[C@H]2C[C@@](C)(OC)[C@@H](O)[C@H](C)O2)[C@H](C)[C@@H](O[C@@H]2O[C@H](C)C[C@H](N(C)C)[C@H]2O)[C@](C)(O)C[C@@H](C)CN(C)[C@H](C)[C@@H](O)[C@]1(C)O [Azithromycin],-0.104 ± 0.66
3,Cn1cncc1[C@@](N)(c1ccc(Cl)cc1)c1ccc2c(c1)c(-c1cccc(Cl)c1)cc(=O)n2C [Tipifarnib],1.13
4,CCCC(=O)Nc1ccc(OCC(O)CNC(C)C)c(C(C)=O)c1 (stereo unspecified) [Acebutolol HCl],0.794
5,COC(=O)C1=C(C)NC(C)=C(C(=O)OCCN2CCN(C(c3ccccc3)c3ccccc3)CC2)C1c1cccc([N+](=O)[O-])c1 (stereo unspecified) [Manidipine],-2.03
6,COc1cccc(C=NCCN=Cc2cccc(OC)c2[O-])c1[O-].[Cl-].[Mn+3],0.166
7,CC(C)(O)CNc1ncc(-c2ccnc(Nc3ccnc(Cl)c3)n2)c(CC2CC2)n1,-6.69
8,CC(=O)Nc1cccc2c1c(Sc1ccc(Cl)cc1)c(C)n2CC(=O)O,-0.457
9,O=S(=O)(c1ccccc1)c1cnc2c(N3CCNCC3)cccc2c1,1.74
10,CNC(=O)c1cc(Oc2ccc(NC(=O)Nc3cc(C(C)(C)C)nn3-c3ccc4ncccc4c3)c(F)c2)ccn1 [DCC-2036 (Rebastinib)],0.441
11,CC1(C)[C@@H](OC(=O)CCC(=O)O)CC[C@]2(C)[C@H]3C(=O)C=C4[C@@H]5C[C@@](C)(C(=O)O)CC[C@]5(C)CC[C@@]4(C)[C@]3(C)CC[C@@H]12 [Carbenoxolone Sodium],1.05
12,C[N+](C)(C)NCCC(=O)[O-] [Mildronate],0.852
13,COc1cc(Nc2nc3ccccc3nc2NS(=O)(=O)c2ccc(NC(=O)c3ccc(C)c(OC)c3)cc2)cc(OC)c1,0.351
14,CC1=C(C(=O)Nc2cc3cn[nH]c3cc2F)C(c2ccc(C(F)(F)F)cc2)CC(=O)N1 (stereo unspecified),0.555
15,C[C@@H](O[C@H]1OCCN(Cc2n[nH]c(=O)[nH]2)[C@H]1c1ccc(F)cc1)c1cc(C(F)(F)F)cc(C(F)(F)F)c1 [Aprepitant],0.17
